Screening data, single-dose tests

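Whole-cell growth test on Mycobacterium tuberculosis, read after 4 days in a medium based on cholesterol and the lipid DPPC; the read-out is not stated. Compounds at 500 µM. The record gives no direction; compounds that gave an IC50 in retests scored well above the rest, so higher reads as more growth inhibition. About 18,000 compounds were tested under these conditions; 5% (about 900) showed 50% or more at least once.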

Each number is a percent effect as filed.
How 0% and 100% were set is not recorded. Most values in the screen are low, and negative values occur.
The compounds are a random part of those screened.

{"structure": "CCc1noc(C2(O)CCNC2)n1", "stereo": "stereo not drawn", "effect": 7.877}
{"structure": "Cc1cc(CO)no1", "effect": -11.44}
{"structure": "CC1(NC(=O)c2ccc(F)c(F)c2)CCS(=O)(=O)C1", "stereo": "stereo not drawn", "effect": 2.169}
{"structure": "CCOC(=O)N1CCC(NC(=O)c2ccsc2)CC1", "effect": 41.81}
{"structure": "CN(C)[C@H]1CN(CCOc2ccccc2)C[C@@H]1O", "effect": 10.96}
{"structure": "CS(=O)(=O)CCNC(=O)c1ccc2c(c1)CCCC2", "effect": 19.03}
{"structure": "COc1ccc(NC(=O)N2CCCN(C)CC2)cc1F", "effect": 23.05}
{"structure": "O=C(NCC(=O)N1CCCC1)c1cccc2cn[nH]c12", "effect": -4.083}
{"structure": "CC(C)[C@H](N)C(=O)N1CCOC2(CCOCC2)C1", "effect": -11.15}
{"structure": "OCc1ccncc1NCc1ccccc1", "effect": 16.45}
{"structure": "CN(Cc1ccccc1N1CCOCC1)S(N)(=O)=O", "effect": 15.77}
{"structure": "CCN1CCC(NC(=O)c2c(F)cccc2F)CC1", "effect": 16.51}
{"structure": "CN(C)C(CNC(=O)c1cnn(C)c1)c1ccsc1", "stereo": "stereo not drawn", "effect": 12.14}
{"structure": "O=C1Nc2ccccc2C1O", "stereo": "stereo not drawn", "effect": 4.302}
{"structure": "COc1cccc2c(N)c(C)cnc12", "effect": -90.47}
{"structure": "NC1CC(=O)Nc2ccccc21", "stereo": "stereo not drawn", "effect": -3.327}
{"structure": "CCc1nc(C#N)c(NCc2ccc3c(c2)OCO3)o1", "effect": 72.84}
{"structure": "O=C(NCCNCc1ccc(F)cc1)c1ccco1", "effect": -3.041}
{"structure": "CS(=O)(=O)NC1CCN(CCOc2ccccc2)CC1", "effect": 15.4}
{"structure": "Cc1ccsc1CN(C)C(=O)CCN(C)S(C)(=O)=O", "effect": 0.7911}
{"structure": "c1cc(-c2nnc[nH]2)ccn1", "effect": -24.24}
{"structure": "CCN(C)C(C)C(=O)Nc1cccc(S(N)(=O)=O)c1", "stereo": "stereo not drawn", "effect": -3.727}
{"structure": "COC(=O)N1CCCC(NC(=O)N2CCC2)C1", "stereo": "stereo not drawn", "effect": 1.131}
{"structure": "N[C@H]1CN(C(=O)CCn2ccccc2=O)C[C@@H]1C1CC1", "effect": 8.297}
{"structure": "CN1CCN(C(=O)Cc2cccc3cccnc23)CC1", "effect": -1.491}
{"structure": "CCO[C@H]1CN(C)C[C@@H]1NC(=O)c1ccc[nH]1", "effect": 3.914}
{"structure": "NCC(=O)N1CCCC(CCc2c(F)cccc2F)C1", "stereo": "stereo not drawn", "effect": 84.15}
{"structure": "N#CCCNC(=O)CN1CCN(C2CCCC2)CC1", "effect": -5.592}
{"structure": "COc1ccc(NC(=O)CCn2ccnc2)cc1", "effect": 7.108}
{"structure": "CC(C)(C)CN(CCCO)C(=O)Nc1ccncc1", "effect": 7.383}
{"structure": "NCc1noc(-c2ccc3c(c2)OCO3)n1", "effect": 23.09}
{"structure": "CC(CN)c1ccccc1", "stereo": "stereo not drawn", "effect": -21.78}
{"structure": "O=C(NC1CCN(CC2CCCO2)CC1)c1cnc[nH]1", "stereo": "stereo not drawn", "effect": -2.094}
{"structure": "NCC1COc2ccccc21", "stereo": "stereo not drawn", "effect": 3.984}
{"structure": "CCNC(=O)COc1ccc(N(CC)S(C)(=O)=O)cc1", "effect": -1.922}
{"structure": "CC[C@H]1COCCN1C(=O)c1nn(C)c(C)c1Cl", "effect": -6.831}
{"structure": "C[C@@H]1CCNC[C@H](C)O1", "effect": -8.936}

Some entries from above, unchanged:

COC(=O)N1CCCC(NC(=O)N2CCC2)C1 (stereo not drawn) gave 1.131%.
NC1CC(=O)Nc2ccccc21 (stereo not drawn) gave -3.327%.

Measurements from “University of Dundee, Small-Polar-MMV Screening Library” (2021), ChEMBL document CHEMBL3988442.